Assay results as given in paper doi:10.1101/2023.07.25.550451.
Results are given in words; binding and its absence hold for the method and conditions named. Sequences can lack the tags named with a protein.

Sequences of proteins named here, by UniProt entry; tags and fusion partners are left off. A change or cut given only in a name is not applied to a line headed by its entry. A line that says so, or that is headed by a name, gives the form on record, which may keep a tag or linker.
UniProt Q969W3: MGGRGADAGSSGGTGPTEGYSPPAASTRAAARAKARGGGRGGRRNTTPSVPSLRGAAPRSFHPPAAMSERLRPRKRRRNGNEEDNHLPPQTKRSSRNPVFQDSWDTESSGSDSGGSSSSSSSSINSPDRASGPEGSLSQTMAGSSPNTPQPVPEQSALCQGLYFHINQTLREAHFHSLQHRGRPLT
GST-FAM104A isoform 1 (Q969W3, form named): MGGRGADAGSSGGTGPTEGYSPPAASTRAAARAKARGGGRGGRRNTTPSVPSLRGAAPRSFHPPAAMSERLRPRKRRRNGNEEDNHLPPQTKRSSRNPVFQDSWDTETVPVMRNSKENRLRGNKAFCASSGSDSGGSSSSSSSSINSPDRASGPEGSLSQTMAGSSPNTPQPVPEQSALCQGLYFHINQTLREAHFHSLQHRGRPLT

B1: His6-p47 (protein, UniProt Q9UNZ2 1-370)
chain: MAAERQEALREFVAVTGAEEDRARFFLESAGWDLQIALASFYEDGGDEDIVTISQATPSSVSRGTAPSDNRVTSFRDLIHDQDEDEEEEEGQRFYAGGSERSGQQIVGPPRKKSPNELVDDLFKGAKEHGAVAVERVTKSPGETSKPRPFAGGGYRLGAAPEEESAYVAGEKRQHSSQDVHVVLKLWKSGFSLDNGELRSYQDPSNAQFLESIRRGEVPAELRRLAHGGQVNLDMEDHRDEDFVKPKGAFKAFTGEGQKLGSTAPQVLSTSSPAQQAENEAKASSSILIDESEPTTNIQIRLADGGRLVQKFNHSHRISDIRLFIVDARPAMAATSFILMTTFPNKELADESQTLKEANLLNAVIVQRLT
B2: His6-UBXN7 (protein, UniProt O94888 1-489)
chain: MAAHGGSAASSALKGLIQQFTTITGASESVGKHMLEACNNNLEMAVTMFLDGGGIAEEPSTSSASVSTVRPHTEEEVRAPIPQKQEILVEPEPLFGAPKRRRPARSIFDGFRDFQTETIRQEQELRNGGAIDKKLTTLADLFRPPIDLMHKGSFETAKECGQMQNKWLMINIQNVQDFACQCLNRDVWSNEAVKNIIREHFIFWQVYHDSEEGQRYIQFYKLGDFPYVSILDPRTGQKLVEWHQLDVSSFLDQVTGFLGEHGQLDGLSSSPPKKCARSESLIDASEDSQLEAAIRASLQETHFDSTQTKQDSRSDEESESELFSGSEEFISVCGSDEEEEVENLAKSRKSPHKDLGHRKEENRRPLTEPPVRTDPGTATNHQGLPAVDSEILEMPPEKADGVVEGIDVNGPKAQLMLRYPDGKREQITLPEQAKLLALVKHVQSKGYPNERFELLTNFPRRKLSHLDYDITLQEAGLCPQETVFVQERN

Tests used:
[1] = biological target: GST-FAM104A isoform 1 (human) (UniProt Q969W3); test: pull-down
[2] = biological target: GST-FAM104A isoform 2 (human) (UniProt Q969W3); test: pull-down

Binder | binding [1] | binding [2]
B1 | no binding | no binding
B2 | no binding | no binding
